Results of single-concentration screens

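Whole-cell growth test on Mycobacterium tuberculosis, read after 3 days in glucose-containing 7H9 medium; the read-out is not stated. Tested at 50 µM. The record gives no direction; compounds that gave an IC50 in retests scored well above the rest, so higher reads as more growth inhibition. About 69,000 compounds were tested under these conditions; 1.1% (about 760) showed 50% or more at least once.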

Values are the deposited “Percent Effect”, in %. How 0% and 100% were set is not recorded. Most values in the screen are low, and negative values occur. Compounds were drawn at random from those tested, without regard to their results. Two or more numbers in one place are separate tests of the same structure; such repeats can differ widely.

Result for Cn1cc(CN2CCc3ncnc(N4CCOCC4)c3CC2)cn1.O=C(O)C(F)(F)F.O=C(O)C(F)(F)F.O=C(O)C(F)(F)F was 0.7559% & -0.9463%.
Result for COc1c(CNCC(c2cccc(F)c2)N(C)C)c(C(C)C)nn1C (stereo unspecified) was 3.271%.
Result for CC(Cc1ccco1)NC(=O)CSc1nnc[nH]1 (stereo unspecified) was 15.65%.
Result for CC(C(=O)NS(=O)(=O)Cc1cc(-c2ccccc2)no1)C1CC1 (stereo unspecified) was 38.65%.
Result for Cn1c(C2CCCN2C(=O)c2cn(CCN)nn2)nc2ccccc21 (stereo unspecified) was -18.62% & -1.84%.
Result for CC(=O)N1CCOC(Cc2cccc(C(F)(F)F)c2)C1 (stereo unspecified) was 33.46% & 3.288%.
Result for O=C(O)c1cncc(Cc2ccccc2F)c1 was -15.7%.
Result for CCN(Cc1cccc(F)c1)Cc1nc2c(cnn2C)c(=O)[nH]1 was -28.47%.
Result for CC(=O)NC1CCCN(C(=O)NCc2cccnc2)C1 (stereo unspecified) was -2.889%.
Result for COC(=O)c1cccc(S(=O)(=O)NC(=O)c2cccc(OC)c2OC)c1 was 2.623%.
Result for CC(C)c1noc(CNc2ccc(OC(F)F)cc2OC(F)F)n1 was 32.28% & 22.86%.
Result for CCc1nc2c(NCC3COc4ccccc4C3)ncnc2o1 (stereo unspecified) was 33.42%.
Result for CC(C)(C)CNC[C@H]1Cn2ccnc2CO1 was -3.938% & -10.45%.
Result for Cc1nc(C(=O)N2CCN(S(C)(=O)=O)CC2)c(-c2ccccc2Cl)s1 was 34.62%.
Result for O=C(C1CC=CC1)N1CCC2(CC1)CN(Cc1ccccn1)CCO2 was 22.82%.
Result for CCc1cccc(-n2nnc(C(=O)O)c2-c2ccncc2)c1 was 5.516%.
Result for O=C(O)c1ccc(C2CCCN(Cc3ccc(-c4cc[nH]n4)o3)C2)cc1 (stereo unspecified) was -29.21%.
Result for O=C(NCc1ccccc1)c1nn(C2CCS(=O)(=O)C2)c2c1CCCC2 (stereo unspecified) was -23.31%.
Result for Cc1nc(NC2CCCC2)cc(C2CCN2C(=O)c2ccccn2)n1 (stereo unspecified) was 12.8%.
Result for Cc1cnn(CC2CCCCN2C(=O)c2ccc(N(C)C)nc2)c1 (stereo unspecified) was -9.204%.
Result for Cc1csc(N2CCN(C(=O)c3cc(Cl)c[nH]3)CC2)n1 was 27.33%.
Result for Cc1cnn(CC2CN(CCCc3nc4ccccc4o3)CCO2)c1 (stereo unspecified) was -16.74%.
Result for [H][C@]12CC[C@]([H])(C1)N(C(=O)c1cccnc1-c1ccc(OC)nc1)C2 was -6.808%.
Result for CCC(OC)C(=O)N1CCc2nc(NC)nc(C(=O)N3CCCC3)c2C1 (stereo unspecified) was -8.923%.
Result for Cc1noc(C(C)C)c1C(=O)NCC1CCN(c2ccccc2)C1 (stereo unspecified) was -6.34%.
Result for Clc1ccccc1-c1nnc(CN2CCCC2Cn2cncn2)o1 (stereo unspecified) was 3.286%.
Result for Cc1cc(C(F)(F)F)c2c(C3CCN(S(=O)(=O)N(C)C)CC3)noc2n1 was 23.81%.
Result for CC(C)(C)C(O)CN1CCN(Cc2cccc(C#N)c2)CC1 (stereo unspecified) was -13.04%.
Result for COCC(=O)N1Cc2nccn2CC(CN(C)Cc2cccnc2)C1 (stereo unspecified) was 12.63%.
Result for CCNC(=O)C1CCN(Cc2ccccc2OCC(F)(F)F)CC1 was -4.21%.
Result for CCN(c1ccc(C(=O)N2CCCCC2)cc1)S(=O)(=O)CC was 15.45%.
Result for CN(C)C(=O)N1CCC2(CC(=O)N(c3ccc4c(c3)OCO4)C2)C1 (stereo unspecified) was -4.067% & -5.468%.
Result for Cc1cc(C)n(CCCNC(=O)C(C)NC(=O)c2ccccc2Cl)n1 (stereo unspecified) was -17.6% & -1.03%.
Result for COc1cccc2c1ccn2CCNC(=O)CC(C)C was 2%.
Result for O=C(O)c1ccc(-c2cscn2)cc1 was -21.2%.
Result for COc1ccc(NC(=O)C2OC(c3cccs3)=NN2C(C)=O)cc1 (stereo unspecified) was 0.4368%.
Result for [H][C@]12CN(CCCSC)CC[C@@]1(O)CCN(c1ncccn1)C2 was 13.45%.
Result for Cc1noc(CC2CCN(Cc3ccc(CCC(C)(C)O)cc3)CC2)n1 was 6.076%.
Result for Cc1cc(NC(=O)CN(CC(C)O)c2ccccc2)on1 (stereo unspecified) was 17.15%.
Result for CN(Cc1noc(C2CC2)n1)C1CCN(Cc2ccccc2C#N)C1 (stereo unspecified) was 4.746%.
Result for COc1c(C(=O)NCc2cccnc2)nnn1Cc1ccc(C)cc1 was 2.742%.
Result for CCc1nc(CN(C)C2CCN(CCNS(=O)(=O)CC)C2)no1 (stereo unspecified) was -50.8%.
Result for CN(C)[C@@H]1C[C@@H](CO)N(C(=O)Nc2ccc(SC(F)(F)F)cc2)C1 was -7.748%.
Result for CCc1ccc2nc(C)cc(C(=O)NC[C@@H]3CCNC[C@H]3O)c2c1 was 5.623% & -6.671%.
Result for [H][C@]12CC[C@]([H])(CN(Cc3cscn3)C1)N(C(=O)c1cccc(OC)c1)C2 was -1.6%.
Result for N#Cc1cccc(CNCCNC(=O)Cc2cccc(F)c2)c1 was -16.44%.
Result for O=C(O)C(F)(F)F.O=C(O)C(F)(F)F.O=C(O)C(F)(F)F.[H][C@@]12CO[C@H](CNc3ncccn3)[C@]1([H])CCN(Cc1ccccn1)C2 was 11.92%.
Result for O=C1CC(c2ccc(C(=O)O)cc2)c2c(sc3c2CCCC3)N1 (stereo unspecified) was 1.081% & 16.24%.
Result for O=C(NCC(O)COc1ccc(F)cc1)C1(c2ccc(F)cc2)CC1 (stereo unspecified) was -9.462%.
Result for CC(C)n1nccc1CN1Cc2nccn2CC1c1ccccc1 (stereo unspecified) was 13.16%.
Result for CCN1CCn2c(C)cnc2C12CCN(C(=O)c1ccco1)CC2.O=C(O)C(F)(F)F.O=C(O)C(F)(F)F was -2.867%.
Result for NS(=O)(=O)c1ccc(NCc2ccco2)c2ncccc12 was 11.28%.

Some entries from above, unchanged:

Compound,percent effect
[H][C@]12CC[C@]([H])(C1)N(C(=O)c1cccnc1-c1ccc(OC)nc1)C2,-6.808
CN(C)C(=O)N1CCC2(CC(=O)N(c3ccc4c(c3)OCO4)C2)C1 (stereo unspecified),-4.067 & -5.468
Cc1noc(CC2CCN(Cc3ccc(CCC(C)(C)O)cc3)CC2)n1,6.076
O=C(O)c1ccc(C2CCCN(Cc3ccc(-c4cc[nH]n4)o3)C2)cc1 (stereo unspecified),-29.21
CC(C)c1noc(CNc2ccc(OC(F)F)cc2OC(F)F)n1,32.28 & 22.86

From ChEMBL document CHEMBL3988442, “University of Dundee, Small-Polar-MMV Screening Library” (2021).